Measured values published in PubChem BioAssay AID1347423 (Functional Genomics Laboratory (NCATS/FGL), 2020).
In all, about 52,000 sequences went through this assay and about 210 (0.4%) were called active.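 The calls were made as follows: active = gene whose silencing raises cell survival under the drug, median off-target-corrected z-score across its silencing RNAs 2 or more; inactive = the rest.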 The list shows a part of the results.

Assay: Resistance to Poly (ADP-Ribose) Polymerase inhibitor: Gene Identification via Genome-wide siRNA Screen
Conditions: mouse BRCA2 R2336H ES cells, olaparib, CellTiter-Glo viability; active compounds read high
In short: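 Genome-wide siRNA screen (3 siRNAs/gene, 20 nM) in mouse ES cells carrying hypomorphic BRCA2 R2336H; olaparib 500 nM added 48 h post-transfection, CellTiter-Glo viability 72 h later. Normalized to plate-median negative control; MAD z-scores, gene median, seed-adjusted.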

Sequence	z-score
GAAGGGACUUCAAAGUUGATT against Ndufb10	inactive: 0.289
GGCAUACACCACUUAGUAATT against Sumo2	inactive: -1.11
GGAAGAUUAAGCGAGAUAUTT against Rnf146	inactive: -1.41
GGGUUGCUACUCACAAUGUTT against Syngr2	inactive: -0.297
AAAAGAUGCAUGUCUCCUUTT against Hbq1	inactive: 1.01
GGAUGAGAACAGCAACCAGTT against Bcl7b	inactive: -1.78
GCCCAUAAACUGAUGGUGGTT against C530046L02Rik	inactive: 0.306
CCAGUAAAAAUUGAAGGCUTT against Capza2	inactive: 0.0355
GCCUGAACUCCUAUGAGCUTT against 2410039E07Rik	inactive: 0.309
GCUGCUUUGCUAUCUCCUGTT against Apof	inactive: -2.5
GCUGUCUACAGACAUCGAUTT against Ung	inactive: -0.285
GGAUGUCAGCUGGUGGUUATT against Tmprss6	inactive: -0.447
GCAGAGGACAGGCUUACUUTT against BC052055	inactive: 1.46
GGACUCUGUCUGUAAACAGTT against Nup43	inactive: 2.73
GGCCAUGAUCAAAACGUAUTT against Leng8	inactive: 0.0289
GGACAUUAUUAUGGAUGAUTT against Arl2bp	inactive: -0.409
GGGUUCUUUUAGGUUGUCATT against E030025D05Rik	inactive: 1.09
GGAAUCCUCGGCAGAUAAATT against Rpl24	inactive: -2.66
CCAUGUGAAAGUAUAAGAATT against Fmo2	inactive: -0.309
GGGUUUUGUUAAUACAUACTT against Usmg1	inactive: -2.55
GCAACAAGUUCGAAAUGAATT against Etv6	inactive: 1.26
GCAGGAAGUACUCCUAUCCTT against D030041N04Rik	inactive: 1.65
UUAUGCUGACCUCUAUCUUTT against Akr1c19	inactive: 0.313
GGCAUCGUAAAGGACAUCATT against Rpl8	inactive: -2.44
CCCUUUAAACCUCUUCAGATT against St7l	inactive: 0.447
GCCAACAACAUCUGUUUCUTT against BC004044	inactive: -0.014

In a second layout: results already given
GGGUUCUUUUAGGUUGUCATT against E030025D05Rik
  z-score: inactive: 1.09
GGAAUCCUCGGCAGAUAAATT against Rpl24
  z-score: inactive: -2.66
CCAUGUGAAAGUAUAAGAATT against Fmo2
  z-score: inactive: -0.309
GGGUUUUGUUAAUACAUACTT against Usmg1
  z-score: inactive: -2.55

Quoted from the listing:
Entry of GCCAACAACAUCUGUUUCUTT against BC004044 under z-score: inactive: -0.014
Entry of GGAUGUCAGCUGGUGGUUATT against Tmprss6 under z-score: inactive: -0.447
Entry of GGCCAUGAUCAAAACGUAUTT against Leng8 under z-score: inactive: 0.0289
Entry of CCAUGUGAAAGUAUAAGAATT against Fmo2 under z-score: inactive: -0.309

Continued:

Sequence	z-score
GGUAUAUGUCACAAUGCAUTT against Farsla	inactive: -0.831
GCUACCUCUGACGACCAAGTT against Slc23a3	inactive: 0.0768
GGAUGGUAGGAUGUAGAUCTT against C630007B19Rik	inactive: -0.206
GGAGAGGAGUGUGUCAUCUTT against Lincr	inactive: -1.39
CCCGUAAGGUAACAAACCGTT against Polr3k	inactive: -0.888
GGAAAUUCUACAAGGGCAATT against Rpl35	inactive: -3.02
GGUGGAGAAACAAAUUAGUTT against Rab9	inactive: -0.507
GCCGAGCUCAAAACACAACTT against Txnl4	inactive: -0.673
GGGUAAUUCCCAGUGAAGATT against Lpin2	inactive: -0.422
GCAUAGCAGAGAUGAUUCUTT against Trip12	inactive: -1.25
GGACAUUGGCCAUUUGGUUTT against Fpr1	inactive: -0.184
GGAGGCAUUCGCAUAGACGTT against G430041M01Rik	inactive: -0.127
CCUCUACAGGCAAAAUUAGTT against Aurkb	inactive: 0.553
GGGUGUAACAAAAUAAAGUTT against Ptprg	inactive: 0.81
GGAUUUUACAUUUCUACACTT against Prss7	inactive: 2.23
GGUAACAUUUUUUUCCUGUTT against Pla2g3	inactive: -0.425
GGACUUCUACCUGUCCAUATT against Crtap	inactive: 1.11
GGUGUGAUGGAGUUCUUAUTT against Ndufs1	inactive: 0.281
GGUUUCAAGGAAAGACUAATT against Kcnj2	inactive: -0.704
GGUCACCCUGUUUAGGCCUTT against Fgd3	inactive: 0.202
GCGCAGAGUUUGACUAUCCTT against Itgb7	inactive: -0.247
GCAAUAAAAACUACACUAGTT against Agpat3	inactive: 1.92
GGCUUUUGUGGACUUUACATT against Capn12	inactive: 0.196
CCAUUACUUCUGUGACCUCTT against Olfr32	inactive: -0.452
CCGUAGUAGAGAAAUUACATT against Sec15l1	inactive: -0.596
GCACCAUAACGUAAGGCAUTT against Ghsr	inactive: -1.02

Sequence	z-score
CGAACAGUGCUUCGUAUGUTT against Lims1	inactive: -1.3
CGAGAUUUCUGAUGAUGAUTT against Osbpl3	inactive: -1.47
CCGCUGAAAAUGGAAGUUATT against Mrgprb4	inactive: -1.1
GGUGAUACUACAUAUCAAGTT against Adamts8	inactive: 0.089
CCAUUUAAUCCAUAUUUCCTT against Gnao1	inactive: -0.379
CCCUGUCUCCCGCAUAGAATT against Itgb6	active: 1.67
GCUCGUCGGCUUUUUGUAATT against BC061194	inactive: -0.189
GCGGAGUGUCAAUAAAAUATT against Atp6v1g2	inactive: -0.251
GCUGGAGAAUAAGCUAAUUTT against Kif13a	inactive: 2.05
CCAUCCAGUCCCUAAGAAATT against Gm1053	inactive: 1.27
GCAUUGGAACCAUGUGCUGTT against 1700112C13Rik	inactive: -0.516
CCACGGGCCAAAUGAAGACTT against Tnfrsf7	inactive: -0.465
GGAAAAGCAGACAUGUGAUTT against Dedd	inactive: 1.16
GGAGCUUCGUGGAUAAGAGTT against Padi3	inactive: -1.21
CCUUAUGGAGCAAACAACATT against 4930412F15Rik	inactive: 0.769
GGCAUAUGUUCGUCUUUCATT against Asf1b	inactive: -1.53
GGCUUUCGUUUACAACAAGTT against Naglu	inactive: 2.05
GCUCAGUUGGCAUCCUGUUTT against D3Ertd250e	inactive: -1.98
CCUCUAAGUAUAUCUUGGATT against 5430433L24Rik	inactive: -2.07
GGAGGAUUUGCCAAGUAACTT against Zbtb33	inactive: -0.219
GCUUAUCUGUCAGUACCACTT against Cxcr6	inactive: 0.549
GCUCAUUUCCAGAAGACACTT against Tas2r102	inactive: 0.153
GGGUGGUGACCCUAAAACUTT against 4933405K07Rik	inactive: -0.0548
GCAAAAAGUGGAAUACUAUTT against C230081A13Rik	inactive: 0.425
CGGAUGAAUGGACUUCCAATT against Dcx	inactive: -2.07
GGAACACUGGGAACGUAUCTT against Ifnk	inactive: 0.11

Sequence	z-score
GGCCAUUUCGAACAUGGUATT against Acacb	inactive: 0.351
CCAUCAUCGCUCUGUCACATT against Olfr1391	inactive: -2.15
GCGACAAUUAAGUAUACUUTT against Gria2	inactive: -0.794
CGUGAAUCUGCACCACGUUTT against BC044804	inactive: 1.44
GGUUUUAUGAGAAAGCAGATT against 4930415J21Rik	inactive: 0.261
GGACUACCAGUUUUACAUCTT against Ssr1	inactive: -0.149
CCAGAUUGUGUUCACGAUGTT against Rasgrf2	inactive: 0.857
CGAUCACCUUAGUAAAUACTT against 0610042I15Rik	inactive: -0.644
CGAGAUCGAGUACUCAACUTT against Vps39	inactive: -2.5
GGUGAACUUGAGGUCACACTT against Angpt4	inactive: -0.562
GCUUAGUGGUUCUUAUUUGTT against Olfr893	inactive: 1.19
GCAUCGACAUCCACUUGAATT against Kif9	inactive: 0.207
GGCUAAGAGCCACCUAGAGTT against 1810023B24Rik	inactive: 3.23
GGUUCACUACAACAUUGGCTT against 4930403J22Rik	inactive: 0.33
GGGUGAUUUCUGGACUUGGTT against Centd2	inactive: 1.49
GGCCAUCGAAACUUUCUCGTT against Igf2bp1	inactive: 0.151
CGGCUUACGCAUGUCUAUGTT against Polr2a	inactive: -3.28
GCUCAGUCAUGUGACCGCATT against Fbxl18	inactive: 0.334
CCGUCAUCUACACCUAUUUTT against Olfr525	inactive: -1.47
GGAGUGAAUAUUGAAAAUCTT against 1700030B21Rik	inactive: -0.131
GCAUUCAACUCAGAUCUCUTT against D430038H04Rik	inactive: 1.33
GGAUUGUCCUUGAUGGCUGTT against Plek2	inactive: 0.639
GCGUAUUUCCUUUCGGAGUTT against Sec6l1	inactive: 0.218
GGGUCUUGGAUAUGUGGUUTT against Olfr1337	inactive: 0.172
GCGUGGAGUGGGAUAAAGATT against Cant1	inactive: -1.04
GCCUAUCAGUAUCAUAGUUTT against Dnajc10	inactive: -1.05
